Experimental data reported in patent publication US9006396B2, “CsPCNA isoform antibodies and uses thereof” (priority 2005, dated 2015).
For at least one compound, name, drawing or mass did not settle the structure. Where no end group is shown, it is not given here.

Amino acid sequences for entries named in this document (tags omitted).
UniProt P12004, whole entry: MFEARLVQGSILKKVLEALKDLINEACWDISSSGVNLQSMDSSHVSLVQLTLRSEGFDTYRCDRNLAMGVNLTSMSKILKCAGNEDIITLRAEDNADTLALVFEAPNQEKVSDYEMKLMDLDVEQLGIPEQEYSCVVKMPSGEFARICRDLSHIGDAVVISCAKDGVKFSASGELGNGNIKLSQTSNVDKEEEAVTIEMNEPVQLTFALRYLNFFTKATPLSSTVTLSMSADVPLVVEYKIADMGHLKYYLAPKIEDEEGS

Target: binding of the Ab126 antibody to the csPCNA immobilized on the ELISA plate (Homo sapiens, UniProt P12004)
Experiment: Direct ELISA, antigenic peptide competing with immobilized PCNA for Ab126
Settings: 0.1 μg recombinant PCNA immobilized; peptide 0.024-2400 ng/well; FIG. 15A; read-out: apparent IC50 for inhibition of Ab126 binding to immobilized csPCNA

Sequence: LGIPEQEY [UMPB6]
- IC50: > 105 nM
